Assay results: patent publication US8216782B2, “PTTG1 as a biomarker for cancer treatment” (Cedars-Sinai Medical Center, priority 2008, dated 2012)

Legend:
HCT116 WT cells = assay: BrdU incorporation assay; assay type: cell-based; details: Homo sapiens, HCT-116, read-out: inhibition of cell proliferation (BrdU incorporation)
Protocol: (§1) The BrdU incorporation assay was carried out using a commercial kit. Briefly, culture cells in 96-well microplates in a final volume of 100 ul culture medium per well. After treatment, add 10 ul BrdU labeling solution per well (final concentration: 10 uM BrdU) and incubate for 2-18 h at 37° C. Carefully remove the culture medium and wash cells twice with 250 ul wash medium containing 10% serum per well. Cells fixed and treated with nucleases working solution for 30 min at 37° C. The incorporated BrdU is detected using anti-BrdU-POD, Fab fragments and peroxidase substrate ABTS. The absorbances of the samples are measured at 405 nm against the background control, using a Victor 3 multiwell plate reader.

HCT116 PTTG1−/− cells = assay: BrdU incorporation assay; assay type: cell-based; details: Homo sapiens, HCT-116, read-out: inhibition of cell proliferation (BrdU incorporation)
Protocol: as §1

## O=C(CCCCCCC(=O)Nc1ccccc1)NO [SAHA, suberoylanilide hydroxamic acid]
HCT116 WT cells
  inhibition at 0.313 µM: 14%
HCT116 PTTG1−/− cells
  inhibition at 0.313 µM: 49%
